According to publication PMC10641524:
Results are given in words; binding and its absence hold for the method and conditions named. Binding seen in cells or lysates may run through a third protein. Here binding means that the protein was enriched with, or labelled near, the bait; the list need not be complete.

By UniProt entry, the sequences of proteins in these tests, tags left out.
UniProt Q9NP72: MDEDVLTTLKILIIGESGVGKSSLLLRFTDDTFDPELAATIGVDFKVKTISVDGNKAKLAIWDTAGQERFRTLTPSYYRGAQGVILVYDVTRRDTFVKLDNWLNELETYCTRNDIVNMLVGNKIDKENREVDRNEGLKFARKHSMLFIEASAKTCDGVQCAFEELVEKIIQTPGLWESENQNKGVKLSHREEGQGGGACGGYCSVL
UniProt Q9Y426: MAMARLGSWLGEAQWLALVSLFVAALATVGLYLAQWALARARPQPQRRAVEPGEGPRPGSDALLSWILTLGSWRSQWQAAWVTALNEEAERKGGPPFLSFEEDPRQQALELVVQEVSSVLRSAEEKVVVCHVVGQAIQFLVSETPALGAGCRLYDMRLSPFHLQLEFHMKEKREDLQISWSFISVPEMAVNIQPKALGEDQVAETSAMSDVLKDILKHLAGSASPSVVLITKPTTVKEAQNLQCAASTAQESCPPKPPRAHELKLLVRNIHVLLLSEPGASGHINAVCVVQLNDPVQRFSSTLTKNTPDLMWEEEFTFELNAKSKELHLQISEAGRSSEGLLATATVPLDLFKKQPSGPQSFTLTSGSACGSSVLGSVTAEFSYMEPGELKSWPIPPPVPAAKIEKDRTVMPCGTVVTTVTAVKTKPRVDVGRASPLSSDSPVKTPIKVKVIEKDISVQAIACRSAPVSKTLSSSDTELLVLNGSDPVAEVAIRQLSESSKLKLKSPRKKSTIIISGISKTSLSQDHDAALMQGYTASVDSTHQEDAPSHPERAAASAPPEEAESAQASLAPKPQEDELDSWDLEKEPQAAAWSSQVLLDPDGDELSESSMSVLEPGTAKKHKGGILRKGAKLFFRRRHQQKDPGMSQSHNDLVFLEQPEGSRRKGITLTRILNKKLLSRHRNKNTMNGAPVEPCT
UniProt Q5T5Y3: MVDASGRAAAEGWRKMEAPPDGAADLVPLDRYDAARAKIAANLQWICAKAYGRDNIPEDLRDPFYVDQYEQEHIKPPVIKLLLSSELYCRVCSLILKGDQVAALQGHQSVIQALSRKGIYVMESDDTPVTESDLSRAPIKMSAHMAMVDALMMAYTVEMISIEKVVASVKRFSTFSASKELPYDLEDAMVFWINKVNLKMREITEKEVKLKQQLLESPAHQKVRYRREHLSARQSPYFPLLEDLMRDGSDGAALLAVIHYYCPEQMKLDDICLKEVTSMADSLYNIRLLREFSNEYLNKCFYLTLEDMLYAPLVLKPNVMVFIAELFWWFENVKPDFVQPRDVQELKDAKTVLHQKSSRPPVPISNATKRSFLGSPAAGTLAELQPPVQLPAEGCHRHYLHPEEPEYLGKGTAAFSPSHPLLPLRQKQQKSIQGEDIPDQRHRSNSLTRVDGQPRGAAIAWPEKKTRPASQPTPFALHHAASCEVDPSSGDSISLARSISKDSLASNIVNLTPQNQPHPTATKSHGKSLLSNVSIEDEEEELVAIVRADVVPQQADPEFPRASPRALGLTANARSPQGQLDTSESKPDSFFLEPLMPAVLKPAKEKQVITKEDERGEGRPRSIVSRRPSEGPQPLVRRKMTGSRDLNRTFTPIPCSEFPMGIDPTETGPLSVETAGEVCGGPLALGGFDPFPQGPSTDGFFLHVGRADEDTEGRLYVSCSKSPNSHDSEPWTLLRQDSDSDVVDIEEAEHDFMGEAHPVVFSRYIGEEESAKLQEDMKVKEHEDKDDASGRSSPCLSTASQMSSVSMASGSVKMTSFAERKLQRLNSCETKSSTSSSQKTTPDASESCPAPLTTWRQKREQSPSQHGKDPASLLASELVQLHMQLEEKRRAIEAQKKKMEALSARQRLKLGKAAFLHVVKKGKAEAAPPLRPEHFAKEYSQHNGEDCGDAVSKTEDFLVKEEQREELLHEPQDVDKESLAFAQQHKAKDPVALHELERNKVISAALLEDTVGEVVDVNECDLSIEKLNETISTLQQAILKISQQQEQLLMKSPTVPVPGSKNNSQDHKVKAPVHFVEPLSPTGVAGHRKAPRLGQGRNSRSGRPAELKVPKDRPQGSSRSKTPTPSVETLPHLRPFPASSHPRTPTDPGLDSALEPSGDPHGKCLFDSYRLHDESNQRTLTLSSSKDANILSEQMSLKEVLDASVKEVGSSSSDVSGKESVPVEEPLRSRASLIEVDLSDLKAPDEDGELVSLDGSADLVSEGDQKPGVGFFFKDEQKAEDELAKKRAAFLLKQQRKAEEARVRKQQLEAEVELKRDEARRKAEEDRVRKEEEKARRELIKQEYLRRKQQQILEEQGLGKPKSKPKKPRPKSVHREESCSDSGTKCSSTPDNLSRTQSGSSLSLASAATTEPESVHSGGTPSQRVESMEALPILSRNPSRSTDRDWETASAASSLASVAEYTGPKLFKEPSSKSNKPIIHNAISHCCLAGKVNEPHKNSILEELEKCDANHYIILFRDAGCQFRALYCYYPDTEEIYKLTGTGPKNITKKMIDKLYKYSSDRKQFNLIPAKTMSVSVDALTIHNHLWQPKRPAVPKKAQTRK
UniProt Q6AZY7: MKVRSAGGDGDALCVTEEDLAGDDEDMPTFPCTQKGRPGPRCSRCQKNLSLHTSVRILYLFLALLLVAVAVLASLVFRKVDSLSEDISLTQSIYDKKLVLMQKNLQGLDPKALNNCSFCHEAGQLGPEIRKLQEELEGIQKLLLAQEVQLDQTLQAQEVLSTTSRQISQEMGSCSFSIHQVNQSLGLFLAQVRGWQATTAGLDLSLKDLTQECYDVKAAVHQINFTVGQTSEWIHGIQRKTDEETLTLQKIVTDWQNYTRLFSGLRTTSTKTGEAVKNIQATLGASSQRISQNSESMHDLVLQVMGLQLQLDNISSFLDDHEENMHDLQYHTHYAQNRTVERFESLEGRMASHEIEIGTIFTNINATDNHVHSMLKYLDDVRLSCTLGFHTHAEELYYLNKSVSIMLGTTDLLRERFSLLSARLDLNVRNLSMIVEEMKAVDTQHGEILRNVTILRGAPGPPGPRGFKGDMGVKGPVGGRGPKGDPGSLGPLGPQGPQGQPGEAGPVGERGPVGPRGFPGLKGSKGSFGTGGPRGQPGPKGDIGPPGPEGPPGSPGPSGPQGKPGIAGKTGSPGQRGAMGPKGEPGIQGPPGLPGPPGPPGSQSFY
UniProt Q8TD16: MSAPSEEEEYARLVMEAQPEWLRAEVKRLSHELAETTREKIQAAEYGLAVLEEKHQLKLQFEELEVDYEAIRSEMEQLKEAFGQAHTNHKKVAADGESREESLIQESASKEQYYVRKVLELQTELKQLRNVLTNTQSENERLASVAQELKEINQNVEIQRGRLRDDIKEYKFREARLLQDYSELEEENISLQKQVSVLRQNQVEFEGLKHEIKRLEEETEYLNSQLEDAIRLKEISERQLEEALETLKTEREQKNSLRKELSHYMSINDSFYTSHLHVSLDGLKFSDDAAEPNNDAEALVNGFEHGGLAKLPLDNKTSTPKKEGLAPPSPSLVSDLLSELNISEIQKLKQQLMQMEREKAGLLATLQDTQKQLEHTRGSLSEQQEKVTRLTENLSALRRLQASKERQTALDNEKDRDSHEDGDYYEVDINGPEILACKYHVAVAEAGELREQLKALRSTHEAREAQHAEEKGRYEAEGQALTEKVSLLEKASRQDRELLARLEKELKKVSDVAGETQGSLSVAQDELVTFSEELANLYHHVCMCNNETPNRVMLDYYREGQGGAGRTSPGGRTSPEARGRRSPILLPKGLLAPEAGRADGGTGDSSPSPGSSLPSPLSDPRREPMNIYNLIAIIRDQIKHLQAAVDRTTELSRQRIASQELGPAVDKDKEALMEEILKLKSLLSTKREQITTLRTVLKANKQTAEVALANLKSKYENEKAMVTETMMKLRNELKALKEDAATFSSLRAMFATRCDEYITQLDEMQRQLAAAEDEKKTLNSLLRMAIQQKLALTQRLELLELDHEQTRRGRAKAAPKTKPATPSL
UniProt Q6NUQ1: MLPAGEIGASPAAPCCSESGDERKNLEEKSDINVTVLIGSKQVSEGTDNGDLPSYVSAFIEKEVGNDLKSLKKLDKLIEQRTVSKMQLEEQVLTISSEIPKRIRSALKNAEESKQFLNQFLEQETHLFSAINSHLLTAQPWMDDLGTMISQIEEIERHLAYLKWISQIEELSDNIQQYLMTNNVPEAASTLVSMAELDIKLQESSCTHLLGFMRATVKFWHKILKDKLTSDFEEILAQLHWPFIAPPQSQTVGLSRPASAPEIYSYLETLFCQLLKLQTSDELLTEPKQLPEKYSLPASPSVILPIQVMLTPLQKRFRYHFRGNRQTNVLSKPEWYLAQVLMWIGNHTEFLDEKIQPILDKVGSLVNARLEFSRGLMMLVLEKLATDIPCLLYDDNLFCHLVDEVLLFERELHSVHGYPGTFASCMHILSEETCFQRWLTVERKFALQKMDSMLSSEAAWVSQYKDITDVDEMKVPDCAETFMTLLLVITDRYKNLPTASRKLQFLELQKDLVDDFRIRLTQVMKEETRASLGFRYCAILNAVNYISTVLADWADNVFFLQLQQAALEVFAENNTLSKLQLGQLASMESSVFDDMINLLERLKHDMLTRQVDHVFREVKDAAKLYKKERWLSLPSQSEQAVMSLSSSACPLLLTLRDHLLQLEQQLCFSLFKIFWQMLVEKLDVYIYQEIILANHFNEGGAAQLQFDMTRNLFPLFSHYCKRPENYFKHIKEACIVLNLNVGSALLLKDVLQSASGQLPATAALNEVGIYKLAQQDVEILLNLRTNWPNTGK
UniProt P32019: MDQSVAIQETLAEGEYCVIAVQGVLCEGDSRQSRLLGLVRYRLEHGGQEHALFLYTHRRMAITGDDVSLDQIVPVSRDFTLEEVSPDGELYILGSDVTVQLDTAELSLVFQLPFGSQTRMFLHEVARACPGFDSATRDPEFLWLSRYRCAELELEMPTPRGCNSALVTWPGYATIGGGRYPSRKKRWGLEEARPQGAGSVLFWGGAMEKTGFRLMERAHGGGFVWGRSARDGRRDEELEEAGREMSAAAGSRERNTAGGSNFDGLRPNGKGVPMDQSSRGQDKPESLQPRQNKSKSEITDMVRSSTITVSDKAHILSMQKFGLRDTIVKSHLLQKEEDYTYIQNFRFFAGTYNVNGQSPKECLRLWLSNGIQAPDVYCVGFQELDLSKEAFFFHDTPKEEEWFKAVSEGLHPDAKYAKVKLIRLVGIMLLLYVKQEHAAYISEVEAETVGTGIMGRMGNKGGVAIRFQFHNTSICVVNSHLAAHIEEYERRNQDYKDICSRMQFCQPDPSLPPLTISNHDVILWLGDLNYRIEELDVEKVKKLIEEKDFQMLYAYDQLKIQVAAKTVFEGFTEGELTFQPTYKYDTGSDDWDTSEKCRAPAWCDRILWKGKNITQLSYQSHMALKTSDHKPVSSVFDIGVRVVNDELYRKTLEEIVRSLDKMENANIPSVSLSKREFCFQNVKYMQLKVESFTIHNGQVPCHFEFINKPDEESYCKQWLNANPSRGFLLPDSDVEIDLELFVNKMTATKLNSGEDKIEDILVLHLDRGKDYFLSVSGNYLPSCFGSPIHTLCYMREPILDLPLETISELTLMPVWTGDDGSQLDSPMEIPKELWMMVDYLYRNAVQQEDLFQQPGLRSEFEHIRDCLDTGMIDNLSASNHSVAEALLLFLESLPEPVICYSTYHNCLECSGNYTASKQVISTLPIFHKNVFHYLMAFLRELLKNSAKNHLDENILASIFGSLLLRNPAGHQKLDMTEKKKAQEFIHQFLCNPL
UniProt Q9Y282: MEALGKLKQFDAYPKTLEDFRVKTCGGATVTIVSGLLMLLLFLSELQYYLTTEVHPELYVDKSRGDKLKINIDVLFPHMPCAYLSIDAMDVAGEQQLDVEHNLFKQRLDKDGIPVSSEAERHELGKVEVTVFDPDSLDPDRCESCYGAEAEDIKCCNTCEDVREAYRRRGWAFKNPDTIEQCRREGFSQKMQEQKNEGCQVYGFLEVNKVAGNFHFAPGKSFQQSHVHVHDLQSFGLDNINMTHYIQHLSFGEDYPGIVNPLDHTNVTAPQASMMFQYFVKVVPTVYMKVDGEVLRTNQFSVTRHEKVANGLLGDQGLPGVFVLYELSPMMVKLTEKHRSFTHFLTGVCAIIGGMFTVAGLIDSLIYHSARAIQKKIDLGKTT

B1: BNIP1 (protein, UniProt Q12981 1-228)
chain: MAAPQDVHVRICNQEIVKFDLEVKALIQDIRDCSGPLSALTELNTKVKEKFQQLRHRIQDLEQLAKEQDKESEKQLLLQEVENHKKQMLSNQASWRKANLTCKIAIDNLEKAELLQGGDLLRQRKTTKESLAQTSSTITESLMGISRMMAQQVQQSEEAMQSLVTSSRTILDANEEFKSMSGTIQLGRKLITKYNRRELTDKLLIFLALALFLATVLYIVKKRLFPFL
B2: TMCO4 (endogenous) (protein, UniProt Q5TGY1 1-634)
chain: MAMWNRPCQRLPQQPLVAEPTAEGEPHLPTGRELTEANRFAYAALCGISLSQLFPEPEHSSFCTEFMAGLVQWLELSEAVLPTMTAFASGLGGEGADVFVQILLKDPILKDDPTVITQDLLSFSLKDGHYDARARVLVCHMTSLLQVPLEELDVLEEMFLESLKEIKEEESEMAEASRKKKENRRKWKRYLLIGLATVGGGTVIGVTGGLAAPLVAAGAATIIGSAGAAALGSAAGIAIMTSLFGAAGAGLTGYKMKKRVGAIEEFTFLPLTEGRQLHITIAVTGWLASGKYRTFSAPWAALAHSREQYCLAWEAKYLMELGNALETILSGLANMVAQEALKYTVLSGIVAALTWPASLLSVANVIDNPWGVCLHRSAEVGKHLAHILLSRQQGRRPVTLIGFSLGARVIYFCLQEMAQEKDCQGIIEDVILLGAPVEGEAKHWEPFRKVVSGRIINGYCRGDWLLSFVYRTSSVQLRVAGLQPVLLQDRRVENVDLTSVVSGHLDYAKQMDAILKAVGIRTKPGWDEKGLLLAPGCLPSEEPRQAAAAASSGETPHQVGQTQGPISGDTSKLAMSTDPSQAQVPVGLDQSEGASLPAAASPERPPICSHGMDPNPLGCPDCACKTQGPSTGLD
B3: C2CD2L (protein, UniProt O14523 1-706)
chain: MDPGWGQRDVGWAALLILFAASLLTVFAWLLQYARGLWLARARGDRGPGPALAGEPAGSLRELGVWRSLLRLRATRAGAAEEPGVRGLLASLFAFKSFRENWQRAWVRALNEQACRNGSSIQIAFEEVPQLPPRASISHVTCVDQSEHTMVLRCQLSAEEVRFPVSVTQQSPAAVSMETYHVTLTLPPTQLEVNLEEIPGEGLLISWAFTDRPDLSLTVLPKLQARERGEEQVELSTIEELIKDAIVSTQPAMMVNLRACSAPGGLVPSEKPPMMPQAQPAIPRPNRLFLRQLRASHLGNELEGTEELCCVAELDNPMQQKWTKPARAGSEVEWTEDLALDLGPQSRELTLKVLRSSSCGDTELLGQATLPVGSPSRPLSRRQLCPLTPGPGKALGPAATMAVELHYEEGSPRNLGTPTSSTPRPSITPTKKIELDRTIMPDGTIVTTVTTVQSRPRIDGKLDSPSRSPSKVEVTEKTTTVLSESSGPSNTSHSSSRDSHLSNGLDPVAETAIRQLTEPSGRVAKKTPTKRSTLIISGVSKVPIAQDELALSLGYAASLEASVQDDAGTSGGPSSPPSDPPAMSPGPLDALSSPTSVQEADETTRSDISERPSVDDIESETGSTGALETRSLKDHKVSFLRSGTKLIFRRRPRQKEAGLSQSHDDLSNATATPSVRKKAGSFSRRLIKRFSFKSKPKANGNPSPQL
B4: REEP4 (protein, UniProt Q9H6H4 1-257)
chain: MVSWMICRLVVLVFGMLCPAYASYKAVKTKNIREYVRWMMYWIVFALFMAAEIVTDIFISWFPFYYEIKMAFVLWLLSPYTKGASLLYRKFVHPSLSRHEKEIDAYIVQAKERSYETVLSFGKRGLNIAASAAVQAATKSQGALAGRLRSFSMQDLRSISDAPAPAYHDPLYLEDQVSHRRPPIGYRAGGLQDSDTEDECWSDTEAVPRAPARPREKPLIRSQSLRVVKRKPPVREGTSRSLKVRTRKKTVPSDVDS
B5: RAB3GAP1 (protein, UniProt Q15042 1-981)
chain: MAADSEPESEVFEITDFTTASEWERFISKVEEVLNDWKLIGNSLGKPLEKGIFTSGTWEEKSDEISFADFKFSVTHHYLVQESTDKEGKDELLEDVVPQSMQDLLGMNNDFPPRAHCLVRWYGLREFVVIAPAAHSDAVLSESKCNLLLSSVSIALGNTGCQVPLFVQIHHKWRRMYVGECQGPGVRTDFEMVHLRKVPNQYTHLSGLLDIFKSKIGCPLTPLPPVSIAIRFTYVLQDWQQYFWPQQPPDIDALVGGEVGGLEFGKLPFGACEDPISELHLATTWPHLTEGIIVDNDVYSDLDPIQAPHWSVRVRKAENPQCLLGDFVTEFFKICRRKESTDEILGRSAFEEEGKETADITHALSKLTEPASVPIHKLSVSNMVHTAKKKIRKHRGVEESPLNNDVLNTILLFLFPDAVSEKPLDGTTSTDNNNPPSESEDYNLYNQFKSAPSDSLTYKLALCLCMINFYHGGLKGVAHLWQEFVLEMRFRWENNFLIPGLASGPPDLRCCLLHQKLQMLNCCIERKKARDEGKKTSASDVTNIYPGDAGKAGDQLVPDNLKETDKEKGEVGKSWDSWSDSEEEFFECLSDTEELKGNGQESGKKGGPKEMANLRPEGRLYQHGKLTLLHNGEPLYIPVTQEPAPMTEDLLEEQSEVLAKLGTSAEGAHLRARMQSACLLSDMESFKAANPGCSLEDFVRWYSPRDYIEEEVIDEKGNVVLKGELSARMKIPSNMWVEAWETAKPIPARRQRRLFDDTREAEKVLHYLAIQKPADLARHLLPCVIHAAVLKVKEEESLENISSVKKIIKQIISHSSKVLHFPNPEDKKLEEIIHQITNVEALIARARSLKAKFGTEKCEQEEEKEDLERFVSCLLEQPEVLVTGAGRGHAGRIIHKLFVNAQRAAAMTPPEEELKRMGSPEERRQNSVSDFPPPAGREFILRTTVPRPAPYSKALPQRMYSVLTKEDFRLAGAFSSDTSFF
B6: MFHAS1 (protein, UniProt Q9Y4C4 1-1052)
chain: MAGMDSGNLKTARLWRDAALRARKLRSNLRQLTLTAAGACPGAGADALESPASPQLVLPANLGDIEALNLGNNGLEEVPEGLGSALGSLRVLVLRRNRFARLPPAVAELGHHLTELDVSHNRLTALGAEVVSALRELRKLNLSHNQLPALPAQLGALAHLEELDVSFNRLAHLPDSLSCLSRLRTLDVDHNQLTAFPRQLLQLVALEELDVSSNRLRGLPEDISALRALKILWLSGAELGTLPAGFCELASLESLMLDNNGLQALPAQFSCLQRLKMLNLSSNLFEEFPAALLPLAGLEELYLSRNQLTSVPSLISGLGRLLTLWLDNNRIRYLPDSIVELTGLEELVLQGNQIAVLPDHFGQLSRVGLWKIKDNPLIQPPYEVCMKGIPYIAAYQKELAHSQPAVQPRLKLLLMGHKAAGKTLLRHCLTEERVEGCPGGGDKEKCYPPSPPPVSKGIEVTSWTADASRGLRFIVYDLAGDESYEVIQPFFLSPGALYVLVVNLATYEPRHFPTTVGSFLHRVGARVPHAVVCIVGTHADLCGERELEEKCLDIHRQIALQEKHDAEGLSRLAKVVDEALARDFELRSASPHAAYYGVSDKNLRRRKAHFQYLLNHRLQILSPVLPVSCRDPRHLRRLRDKLLSVAEHREIFPNLHRVLPRSWQVLEELHFQPPQAQRLWLSWWDSARLGLQAGLTEDRLQSALSYLHESGKLLYFEDSPALKEHVFHNLTRLIDILNVFFQRDPSLLLHKLLLGTSGEGKAEGESSPPMARSTPSQELLRATQLHQYVEGFLLHGLLPAHVIRLLLKPHVQAQQDLQLLLELLEKMGLCYCLNKPKGKPLNGSTAWYKFPCYVQNEVPHAEAWINGTNLAGQSFVAEQLQIEYSFPFTFPLGLFARYSVQINSHVVHRSDGKFQIFAYRGKVPVVVSYRPARGVLQPDTLSIASHASLPNIWTAWQAITPLVEELNVLLQEWPGLHYTVHILCSKCLKRGSPNPHAFPGELLSQPRPEGVAEIICPKNGSERVNVALVYPPTPTVISPCSKKNVGEKHRNQ

target: BirA*-RAB18 (UniProt Q9NP72); assay: proximity labelling; BioID: BirA*-RAB18 transiently expressed in WT HeLa cells (compared with RAB3GAP1-, RAB3GAP2- and TRAPPC9-null cells), 50 uM biotin 24 h; biotinylated proteins purified on streptavidin Dynabeads, label-free quantitative mass spectrometry; hits are proteins with RAB3GAP-null:WT intensity ratio <=0.5

Row | Molecule | binding
1 | NBAS (from UniProt A2RRP1 1-2371) | binds
2 | C2CD2 (from UniProt Q9Y426 1-696) | binds
3 | CAMSAP1 (from UniProt Q5T5Y3 1-1602) | binds
4 | SCARA3 (from UniProt Q6AZY7 1-606) | binds
5 | BICD2 (from UniProt Q8TD16 1-824) | binds
6 | RINT1 (from UniProt Q6NUQ1 1-792) | binds
7 | INPP5B (endogenous) (from UniProt P32019 1-993) | binds
8 | ERGIC3 (from UniProt Q9Y282 1-383) | binds
9 | B1 | binds
10 | B2 | binds
11 | B3 | binds
12 | B4 | binds
13 | B5 | binds
14 | B6 | binds
